Measurements taken from patent US20170189504A1, “NOVEL PEPTIDES AND COMBINATION OF PEPTIDES FOR USE IN IMMUNOTHERAPY AGAINST VARIOUS CANCERS” (immatics biotechnologies GmbH, priority 2015, published 2017).
For some of these results: Expression values are those of the mRNA of the gene that encodes the peptide; a gene is named only where it was looked up.

Experiments:
HLA-A*24 = experiment: Identification and relative LC-MS quantitation of HLA-A*24-presented tumor-associated peptides on tissue samples (presentation profiles, Tables 14A, 14B, 16, FIG. 1); design: species or system human; key to Presentation score GC / Presentation score NSCLC / Presentation score PCA / Presentation score GB / Presentation score HCC / Presentation score RCC: specifically presented on tumors (++++); very highly over-presented on tumors compared to a panel of normal tissues (+++); highly over-presented on tumors compared to a panel of normal tissues (++); over-presented on tumors compared to a panel of normal tissues (+); conditions: for Presentation score HCC: hepatocellular carcinoma (N = 15) vs panel of normal tissues (N = 70); for Presentation score NSCLC: non-small cell lung cancer (N = 91) vs panel of normal tissues (N = 70); for Peptide Presentation on cancer entities: Table 14A, HLA-A*24-binding tumor-associated peptides, cancer entities on which the peptide was found presented
source genes (mRNA) [1] = experiment: Gene and exon expression of source genes, TCGA tumor samples compared with normal tissue samples (Lonsdale, 2013) (Table 17); design: species or system human
source genes (mRNA) [2] = experiment: Expression profiling of source genes by in-house RNASeq of tumor and normal tissues (Table 18, FIG. 2); design: species or system human; key: very highly over-expressed in tumors compared to a panel of normal tissues (+++); highly over-expressed in tumors compared to a panel of normal tissues (++); over-expressed in tumors compared to a panel of normal tissues (+); conditions: source gene of peptide; for Expression score SCLC: small cell lung cancer (N = 10) vs panel of normal tissues

“282: peptide found in NUP93 (gene looked up) (KFVDSTFYL; listed as Homo sapiens) [compound 282]” was tested, and the “Presentation score GC” value (HLA-A*24; HLA-A*24 peptides, gastric cancer (N = 44) vs panel of normal tissues (N = 70)) was “+++”, the “Presentation score GB” value (HLA-A*24; HLA-A*24 peptides, glioblastoma (N = 18) vs panel of normal tissues (N = 70)) was “+++” and the “Presentation score HCC” value (HLA-A*24; HLA-A*24 peptides) was “+++”. The “Presentation score NSCLC” value (HLA-A*24; HLA-A*24 peptides) was “+++”, the “Peptide Presentation on cancer entities” value (HLA-A*24) was “GB, GC, NSCLC, HCC” and the “Target coverage: over-expression category of source gene, LAML” value (source genes (mRNA) [1]; Acute Myeloid Leukemia (N = 173), tumor expression more than 2-fold above highest 75% percentile of high and medium risk normal tissues) was “A (>=50% of tumors above the cutoff)”. For the same substance, the “Target coverage: over-expression category of source gene, BLCA” value (source genes (mRNA) [1]; Bladder urothelial carcinoma (N = 408), tumor expression more than 2-fold above highest 75% percentile of high and medium risk normal tissues) was “A (>=50% of tumors above the cutoff)”, the “Target coverage: over-expression category of source gene, BRCA” value (source genes (mRNA) [1]; Breast cancer (N = 1104), tumor expression more than 2-fold above highest 75% percentile of high and medium risk normal tissues) was “B (>= 20% of tumors above the cutoff, but <50%)” and the “Target coverage: over-expression category of source gene, CHOL” value (source genes (mRNA) [1]; Cholangiocarcinoma (N = 36), tumor expression more than 2-fold above highest 75% percentile of high and medium risk normal tissues) was “B (>= 20% of tumors above the cutoff, but <50%)”. For the same substance, the “Target coverage: over-expression category of source gene, KIRC” value (source genes (mRNA) [1]; Clear cell kidney carcinoma (N = 534), tumor expression more than 2-fold above highest 75% percentile of high and medium risk normal tissues) was “C (>=5% of tumors above the cutoff, but <20%)”, the “Target coverage: over-expression category of source gene, READ” value (source genes (mRNA) [1]; Colon and rectal adenocarcinoma (N = 167), tumor expression more than 2-fold above highest 75% percentile of high and medium risk normal tissues) was “A (>=50% of tumors above the cutoff)” and the “Target coverage: over-expression category of source gene, COAD” value (source genes (mRNA) [1]; Colon and rectal adenocarcinoma (N = 462), tumor expression more than 2-fold above highest 75% percentile of high and medium risk normal tissues) was “A (>=50% of tumors above the cutoff)”. For the same substance, the “Target coverage: over-expression category of source gene, ESCA” value (source genes (mRNA) [1]; Esophageal cancer (N = 185), tumor expression more than 2-fold above highest 75% percentile of high and medium risk normal tissues) was “A (>=50% of tumors above the cutoff)”, the “Target coverage: over-expression category of source gene, GBM” value (source genes (mRNA) [1]; Glioblastoma multiforme (N = 169), tumor expression more than 2-fold above highest 75% percentile of high and medium risk normal tissues) was “A (>=50% of tumors above the cutoff)” and the “Target coverage: over-expression category of source gene, LIHC” value (source genes (mRNA) [1]; Liver hepatocellular carcinoma (N = 374), tumor expression more than 2-fold above highest 75% percentile of high and medium risk normal tissues) was “C (>=5% of tumors above the cutoff, but <20%)”. The “Target coverage: over-expression category of source gene, LGG” value (source genes (mRNA) [1]; Lower grade glioma (N = 534), tumor expression more than 2-fold above highest 75% percentile of high and medium risk normal tissues) was “A (>=50% of tumors above the cutoff)”, the “Target coverage: over-expression category of source gene, LUAD” value (source genes (mRNA) [1]; Lung adenocarcinoma (N = 517), tumor expression more than 2-fold above highest 75% percentile of high and medium risk normal tissues) was “B (>= 20% of tumors above the cutoff, but <50%)” and the “Target coverage: over-expression category of source gene, LUSC” value (source genes (mRNA) [1]; Lung squamous cell carcinoma (N = 503), tumor expression more than 2-fold above highest 75% percentile of high and medium risk normal tissues) was “A (>=50% of tumors above the cutoff)”. For the same substance, the “Target coverage: over-expression category of source gene, DLBC” value (source genes (mRNA) [1]; Lymphoid neoplasm diffuse large B-cell lymphoma (N = 48), tumor expression more than 2-fold above highest 75% percentile of high and medium risk normal tissues) was “A (>=50% of tumors above the cutoff)”, the “Target coverage: over-expression category of source gene, OV” value (source genes (mRNA) [1]; Ovarian serous cystadenocarcinoma (N = 309), tumor expression more than 2-fold above highest 75% percentile of high and medium risk normal tissues) was “A (>=50% of tumors above the cutoff)” and the “Target coverage: over-expression category of source gene, PAAD” value (source genes (mRNA) [1]; Pancreatic ductal adenocarcinoma (N = 179), tumor expression more than 2-fold above highest 75% percentile of high and medium risk normal tissues) was “B (>= 20% of tumors above the cutoff, but <50%)”. For the same substance, the “Target coverage: over-expression category of source gene, KIRP” value (source genes (mRNA) [1]; Papillary kidney carcinoma (N = 291), tumor expression more than 2-fold above highest 75% percentile of high and medium risk normal tissues) was “B (>= 20% of tumors above the cutoff, but <50%)”, the “Target coverage: over-expression category of source gene, PRAD” value (source genes (mRNA) [1]; Prostate adenocarcinoma (N = 498), tumor expression more than 2-fold above highest 75% percentile of high and medium risk normal tissues) was “A (>=50% of tumors above the cutoff)” and the “Target coverage: over-expression category of source gene, SKCM” value (source genes (mRNA) [1]; Skin cutaneous melanoma (N = 473), tumor expression more than 2-fold above highest 75% percentile of high and medium risk normal tissues) was “A (>=50% of tumors above the cutoff)”. For the same substance, the “Target coverage: over-expression category of source gene, STAD” value (source genes (mRNA) [1]; Stomach adenocarcinoma (N = 415), tumor expression more than 2-fold above highest 75% percentile of high and medium risk normal tissues) was “A (>=50% of tumors above the cutoff)”, the “Target coverage: over-expression category of source gene, UCEC” value (source genes (mRNA) [1]; Uterine corpus endometrial carcinoma (N = 546), tumor expression more than 2-fold above highest 75% percentile of high and medium risk normal tissues) was “A (>=50% of tumors above the cutoff)” and the “Expression score NHL” value (source genes (mRNA) [2]; non-Hodgkin lymphoma (N = 10) vs panel of normal tissues) was “+”. The “Expression score SCLC” value (source genes (mRNA) [2]) was “+”.
In the case of “208: peptide found in CALCA (gene looked up) (TYTQDFNKF; listed as Homo sapiens) [compound 208]”, the “Presentation score HCC” value (HLA-A*24; HLA-A*24 peptides) is reported as “+”, the “Presentation score NSCLC” value (HLA-A*24; HLA-A*24 peptides) is reported as “+++” and the “Peptide Presentation on cancer entities” value (HLA-A*24) is reported as “NSCLC, HCC”. For the same substance, the “Over-expression category of source gene (target coverage), CHOL” value (source genes (mRNA) [1]; CHOL = Cholangiocarcinoma (N = 36), same cutoff) was “C (>=5% of tumors above the cutoff, but <20%)”, the “Over-expression category of source gene (target coverage), KICH” value (source genes (mRNA) [1]; KICH = Kidney chromophobe (N = 66), same cutoff) was “B (>= 20% of tumors above the cutoff, but <50%)” and the “Over-expression category of source gene (target coverage), LUAD” value (source genes (mRNA) [1]; LUAD = Lung adenocarcinoma (N = 517), same cutoff) was “C (>=5% of tumors above the cutoff, but <20%)”. For the same substance, the “Expression score HCC” value (source genes (mRNA) [2]; hepatocellular carcinoma (N = 15) vs panel of normal tissues) was “+++”, the “Expression score PC” value (source genes (mRNA) [2]; pancreatic cancer (N = 26) vs panel of normal tissues) was “+++” and the “Expression score SCLC” value (source genes (mRNA) [2]) was “+++”.
